Results: article PMC11279866 (Pharmaceutics, 2024)

Experiment: general procedure: peptide synthesis; 2-chlorotrityl chloride resin; TBTU/DIPEA
Conditions: whole synthesis, HPLC and mass spectrometry

DOTA-Ahx-VGB3
final HPLC purity: >86%
